Reference: patent publication US20090075889A1 (YEDA RESEARCH AND DEVELOPMENT, published 2009)
These are yes or no findings as the source states them, for the method shown.

B1: IREN (other)
chain: MSGSQNNDKRQFLLERLLDAVKQCQIRFGGRKEIASDSDSRVTCLCAQFEAVLQHGLKRSRGLALTAAAIKQAAGFASKTETEPVFWYYVKEVLNKHELQRFYSLRHIASDVGRGRAWLRCALNEHSLERYLHMLLADRCRLSTFYEDWSFVMDEERSSMLPTMAAGLNSILFAINIDNKDLNGQSKFAPTVSDLLKESTQNVTSLLKESTQGVSSLFREITASSAVSILIKPEQETDPLPVVSRNVSADAKCKKERKKKKKVTNIISFDDEEDEQNSGDVFKKTPGAGESSEDNSDRSSVNIMSAFESPFGPNSNGSQSSNSWKIDSLSLNGEFGYQKLDVKSIDDEDVDENEDDVYGNSSGRKHRGHSESPEKPLEGNTCLSQMHSWAPLKVLHNDSDILFPVSGVGSYSPADAPLGSLENGTGPEDHVLPDPGLRYSVEASSPGHGSPLSSLLPSASVPESMTISELRQATVAMMNRKDELEEENRSLRNLLDGEMEHSAALRQEVDTLKRKVAEQEERQGMKVQALASYLCYFVRRF
notes: Tested in yeast two-hybrid as a hybrid protein; the fusion partner is not included in the chain; also called IκB REgulator; IREN protein
B2: IREN1-197 (protein)
chain: MSGSQNNDKRQFLLERLLDAVKQCQIRFGGRKEIASDSDSRVTCLCAQFEAVLQHGLKRSRGLALTAAAIKQAAGFASKTETEPVFWYYVKEVLNKHELQRFYSLRHIASDVGRGRAWLRCALNEHSLERYLHMLLADRCRLSTFYEDWSFVMDEERSSMLPTMAAGLNSILFAINIDNKDLNGQSKFAPTVSDLLK
B3: IREN198-388 (other)
chain: ESTQNVTSLLKESTQGVSSLFREITASSAVSILIKPEQETDPLPVVSRNVSADAKCKKERKKKKKVTNIISFDDEEDEQNSGDVFKKTPGAGESSEDNSDRSSVNIMSAFESPFGPNSNGSQSSNSWKIDSLSLNGEFGYQKLDVKSIDDEDVDENEDDVYGNSSGRKHRGHSESPEKPLEGNTCLSQMHS
notes: Two-hybrid prey construct
B4: IREN198-541 (other)
chain: ESTQNVTSLLKESTQGVSSLFREITASSAVSILIKPEQETDPLPVVSRNVSADAKCKKERKKKKKVTNIISFDDEEDEQNSGDVFKKTPGAGESSEDNSDRSSVNIMSAFESPFGPNSNGSQSSNSWKIDSLSLNGEFGYQKLDVKSIDDEDVDENEDDVYGNSSGRKHRGHSESPEKPLEGNTCLSQMHSWAPLKVLHNDSDILFPVSGVGSYSPADAPLGSLENGTGPEDHVLPDPGLRYSVEASSPGHGSPLSSLLPSASVPESMTISELRQATVAMMNRKDELEEENRSLRNLLDGEMEHSAALRQEVDTLKRKVAEQEERQGMKVQALASYLCYFVRRF
notes: Two-hybrid prey construct; also called N-terminal deletion mutant of IREN; IRENΔN
B5: IREN 10B (other)
chain: MSGSQNNDKRQFLLERLLDAVKQCQIRFGGRKEIASDSDSRVTCLCAQFEAVLQHGLKRSRGLALTAAAIKQAAGFASKTETEPVFWYYVKEVLNKHELQRFYSLRHIASDVGRGRAWLRCALNEHSLERYLHMLLADRCRLSTFYEDWSFVMDEERSSMLPTMAAGLNSILFAINIDNKDLNGQSKFAPTVSDLLKESTQNVTSLLKESTQGVSSLFREITASSAVSILIKPEQETDPLPVVSRNVSADAKCKKERKKKKKVTNIISFDDEEDEQNSGDVFKKTPGAGESSEDNSDRSSVNIMSAFESPFGPNSNGSQSSNSWKIDSLSLNGEFGYQKLDVKSIDDEDVDENEDDVYGNSSGRKHRGHSESPEKPLEGNTCLSQMHSWAPLKVLHNDSDILFPVSGVGSYSPADAPLGSLENGTGPEDHVLPDPGLRYSVEASSPGHGSPLSSLLPSASVPESMTISELRQATVAMMNRKDELEEENRSLRNLLDGEMEHSAALRQEVDTLKRKVAEQEERQGMKVQALARENEVLKVQLKKYVGAVQMLKREGQTAEVPNLWSVDGEVTVAEQKPGEIAEELASSYERKLIEVAEMHGELIEFNERLHRALVAKEALVSQMRQELIDLRGPVPGDLSQTSEDQSLSDFEISNRALINVWIPSVFLRGKAANAFHVYQVYIRIKDDEWNIYRRYTEFRSLHHKLQNKYPQVRAYNFPPKKAIGNKDAKFVEERRKQLQNYLRSVMNKVIQMVPEFAASPKKETLIQLMPFFVDITPPGEPVNSRPKAASRFPKLSRGQPRETRNVEPQSGDL
notes: Splice isoform of IREN; Used as both bait and prey in yeast two-hybrid; also called clone 10B

biological target: Cyclin D; assay: yeast two-hybrid, β-galactosidase colour test

Question: How did the binding turn out when B1 was run?
Answer: no binding

biological target: Lamin; assay: yeast two-hybrid, β-galactosidase colour test

Question: Which binding does the source give for B2 here?
Answer: no binding

Question: With B3 as the binder, how does the binding read?
Answer: no binding

Question: How did the binding turn out when B4 was run?
Answer: no binding

Question: Which binding does the source give for B5 here?
Answer: no binding

Question: Which binding does the source give for B1 here?
Answer: no binding
